Experimental data: PubChem BioAssay AID1259405 (NCATS, 2018)

- Purpose: 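Mouse-designed siRNAs used to find CHO productivity engineering targets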 (primary screen)
- Cell system: Chinese hamster CHO-K1 ovary cells with stable secreted eGFP expression
- Knock-down reagent: single siRNA against mouse genes, 0.8 pmol siRNA per well (2 µl of 400 nM stock)
- Timing: 3 days
- Read-out: 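Per-well intracellular GFP measured by laser scanning cytometry, plus viability from ATP luminescence, each relative to plate median of non-targeting control wells, in %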
- Reading the numbers: GFP, % of control: higher = more GFP per well, higher productivity; viability (ATP), % of control: higher = more viable cells (more ATP)
- Hit rule: 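a knock-down is called active if GFP reaches 120% or more of non-targeting control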
Shown is an unselected part of about 50,000 reagents tested. Over the whole deposit, about 4,000 (8%) are marked active. 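Mouse siRNA library applied to hamster cells; one well for each siRNA.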 Entries without a mark were called inactive. Reagents against one gene are numbered here.

Gene	reagent	GFP, % of control	viability (ATP), % of control
2210409E12Rik (RIKEN cDNA 2210409E12 gene)	1	157 (active)	124
2210409E12Rik (RIKEN cDNA 2210409E12 gene)	2	96.6	105
2210409E12Rik (RIKEN cDNA 2210409E12 gene)	3	102	60.3
Nherf1 (NHERF family PDZ scaffold protein 1)	1	70	56
Nherf1 (NHERF family PDZ scaffold protein 1)	2	56.6	47.9
Kcnj3 (potassium inwardly-rectifying channel, subfamily J, member 3)	1	148 (active)	71.7
Kcnj3 (potassium inwardly-rectifying channel, subfamily J, member 3)	2	104	108
Kcnj3 (potassium inwardly-rectifying channel, subfamily J, member 3)	3	68.7	107
Nanos2 (nanos C2HC-type zinc finger 2)	1	79	68
Nanos2 (nanos C2HC-type zinc finger 2)	2	52.6	64
Nanos2 (nanos C2HC-type zinc finger 2)	3	93.4	55.8
Oaf (out at first homolog)	1	104	79.3
Oaf (out at first homolog)	2	156 (active)	88.1
Oaf (out at first homolog)	3	122 (active)	93
Or2a5 (olfactory receptor family 2 subfamily A member 5)	1	72.3	48.7
Or2a5 (olfactory receptor family 2 subfamily A member 5)	2	93.3	80.3
Or2a5 (olfactory receptor family 2 subfamily A member 5)	3	87.2	77.3
Ido2 (indoleamine 2,3-dioxygenase 2)	1	70.1	33.9
Ido2 (indoleamine 2,3-dioxygenase 2)	2	89.7	87.7
Ido2 (indoleamine 2,3-dioxygenase 2)	3	103	98.3
Rnf185 (ring finger protein 185)	1	74	42.6
Rnf185 (ring finger protein 185)	2	109	71.7
Flacc1 (flagellum associated containing coiled-coil domains 1)	1	138 (active)	113
Flacc1 (flagellum associated containing coiled-coil domains 1)	2	111	78.2
Flacc1 (flagellum associated containing coiled-coil domains 1)	3	127 (active)	134
Cnppd1 (cyclin Pas1/PHO80 domain containing 1)	1	79.8	53.3
Cnppd1 (cyclin Pas1/PHO80 domain containing 1)	2	46.5	49.3
Cnppd1 (cyclin Pas1/PHO80 domain containing 1)	3	43.4	60.9
Tbx19 (T-box 19)	1	71.3	75.4
Tbx19 (T-box 19)	2	70	58.5
Tbx19 (T-box 19)	3	96.6	106
Hyal3 (hyaluronoglucosaminidase 3)	1	131 (active)	84.3
Hyal3 (hyaluronoglucosaminidase 3)	2	121 (active)	143
Hyal3 (hyaluronoglucosaminidase 3)	3	96.7	140
Tnnc1 (troponin C, cardiac/slow skeletal)	1	68.1	99.6
Tnnc1 (troponin C, cardiac/slow skeletal)	2	90.3	112
Col11a2 (collagen, type XI, alpha 2)	1	90.6	64.5
Col11a2 (collagen, type XI, alpha 2)	2	128 (active)	105
Col11a2 (collagen, type XI, alpha 2)	3	57.6	42.5
Kank1 (KN motif and ankyrin repeat domains 1)	1	63.8	74.8
Kank1 (KN motif and ankyrin repeat domains 1)	2	88.3	75.4
Kank1 (KN motif and ankyrin repeat domains 1)	3	55.6	32.5
S1pr1 (sphingosine-1-phosphate receptor 1)	1	121 (active)	110
S1pr1 (sphingosine-1-phosphate receptor 1)	2	74.1	62.3
S1pr1 (sphingosine-1-phosphate receptor 1)	3	65.7	76.5
Alox12e (arachidonate lipoxygenase, epidermal)	1	77.6	41
Alox12e (arachidonate lipoxygenase, epidermal)	2	45.7	46.2
Alox12e (arachidonate lipoxygenase, epidermal)	3	78.5	85
Fcgr1 (Fc receptor, IgG, high affinity I)	1	115	91.4
Fcgr1 (Fc receptor, IgG, high affinity I)	2	101	103
Fcgr1 (Fc receptor, IgG, high affinity I)	3	89.4	51.1
Denr (density-regulated protein)	1	53.9	71.3
Denr (density-regulated protein)	2	17.9	30.1
Denr (density-regulated protein)	3	76.3	72.4
Dynlt3 (dynein light chain Tctex-type 3)	1	54.5	67.1
Dynlt3 (dynein light chain Tctex-type 3)	2	52.5	57.8
Dynlt3 (dynein light chain Tctex-type 3)	3	87.2	88.5
Gcnt1 (glucosaminyl (N-acetyl) transferase 1, core 2)	1	137 (active)	111
Gcnt1 (glucosaminyl (N-acetyl) transferase 1, core 2)	2	57.1	84.9
Gcnt1 (glucosaminyl (N-acetyl) transferase 1, core 2)	3	78.5	83
Mpo (myeloperoxidase)	1	131 (active)	119
Mpo (myeloperoxidase)	2	79.3	59.6
Mpo (myeloperoxidase)	3	109	64.3
Fasn (fatty acid synthase)	1	94.6	86.4
Fasn (fatty acid synthase)	2	77.2	67.1
Fasn (fatty acid synthase)	3	103	81
Irf4 (interferon regulatory factor 4)	1	72.7	70
Irf4 (interferon regulatory factor 4)	2	65.6	67.5
Irf4 (interferon regulatory factor 4)	3	63.4	82.1
Irs3 (insulin receptor substrate 3)	1	83.4	84.6
Irs3 (insulin receptor substrate 3)	2	34.9	19.5
Irs3 (insulin receptor substrate 3)	3	177 (active)	53.3
Tyms (thymidylate synthase)	1	61.5	44.2
Tyms (thymidylate synthase)	2	50	44.8
Tyms (thymidylate synthase)	3	91.2	108
Fam107a (family with sequence similarity 107, member A)	1	40.9	42
Fam107a (family with sequence similarity 107, member A)	2	64.8	104
Fam107a (family with sequence similarity 107, member A)	3	56.6	124
Mapre1 (microtubule-associated protein, RP/EB family, member 1)	1	66.8	50.3
Mapre1 (microtubule-associated protein, RP/EB family, member 1)	2	75.2	64.3
Mapre1 (microtubule-associated protein, RP/EB family, member 1)	3	68	54.8
Papolg (poly(A) polymerase gamma)	1	76.1	77.3
Papolg (poly(A) polymerase gamma)	2	121 (active)	94.7
Inhca (inhibitor of carbonic anhydrase)	1	126 (active)	98.8
Inhca (inhibitor of carbonic anhydrase)	2	118	84.9
Inhca (inhibitor of carbonic anhydrase)	3	64.1	59.6

Reprinted from the entries so far (7 entries):
Gene	reagent	GFP, % of control	viability (ATP), % of control
Tyms (thymidylate synthase)	3	91.2	108
Fam107a (family with sequence similarity 107, member A)	1	40.9	42
Fam107a (family with sequence similarity 107, member A)	2	64.8	104
Fam107a (family with sequence similarity 107, member A)	3	56.6	124
Mapre1 (microtubule-associated protein, RP/EB family, member 1)	1	66.8	50.3
Mapre1 (microtubule-associated protein, RP/EB family, member 1)	2	75.2	64.3
Mapre1 (microtubule-associated protein, RP/EB family, member 1)	3	68	54.8
